No constants are given. Whether binding was seen depends on the method and setting. In cells and extracts the contact can be indirect. Here binding means that the protein was enriched with, or labelled near, the bait; the list need not be complete. Tags and fused reporters may be left off the sequences shown.

Sequences of proteins named here, by UniProt entry; tags and fusion partners are left off.
UniProt O00429: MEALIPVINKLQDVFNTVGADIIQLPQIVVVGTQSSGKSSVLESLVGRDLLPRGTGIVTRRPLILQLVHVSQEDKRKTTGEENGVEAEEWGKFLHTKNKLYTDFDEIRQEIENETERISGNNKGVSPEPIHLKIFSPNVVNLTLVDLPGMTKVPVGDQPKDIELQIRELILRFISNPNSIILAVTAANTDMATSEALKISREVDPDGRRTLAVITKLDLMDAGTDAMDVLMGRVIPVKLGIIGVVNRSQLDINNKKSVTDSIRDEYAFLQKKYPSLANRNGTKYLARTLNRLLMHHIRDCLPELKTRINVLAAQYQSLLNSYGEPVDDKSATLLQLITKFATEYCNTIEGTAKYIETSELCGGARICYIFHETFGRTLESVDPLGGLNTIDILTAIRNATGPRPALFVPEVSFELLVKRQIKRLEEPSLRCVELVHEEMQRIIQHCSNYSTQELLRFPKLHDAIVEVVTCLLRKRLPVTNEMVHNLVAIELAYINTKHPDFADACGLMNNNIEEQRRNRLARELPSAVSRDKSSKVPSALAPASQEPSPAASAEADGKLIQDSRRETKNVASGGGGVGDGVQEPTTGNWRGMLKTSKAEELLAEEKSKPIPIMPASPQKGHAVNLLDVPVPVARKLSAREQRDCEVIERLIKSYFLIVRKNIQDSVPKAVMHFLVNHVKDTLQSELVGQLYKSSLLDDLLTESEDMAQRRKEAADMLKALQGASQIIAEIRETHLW

The target in the assay is T1, GST-tagged GBP2 (human) (UniProt P32456).
T1 sequence: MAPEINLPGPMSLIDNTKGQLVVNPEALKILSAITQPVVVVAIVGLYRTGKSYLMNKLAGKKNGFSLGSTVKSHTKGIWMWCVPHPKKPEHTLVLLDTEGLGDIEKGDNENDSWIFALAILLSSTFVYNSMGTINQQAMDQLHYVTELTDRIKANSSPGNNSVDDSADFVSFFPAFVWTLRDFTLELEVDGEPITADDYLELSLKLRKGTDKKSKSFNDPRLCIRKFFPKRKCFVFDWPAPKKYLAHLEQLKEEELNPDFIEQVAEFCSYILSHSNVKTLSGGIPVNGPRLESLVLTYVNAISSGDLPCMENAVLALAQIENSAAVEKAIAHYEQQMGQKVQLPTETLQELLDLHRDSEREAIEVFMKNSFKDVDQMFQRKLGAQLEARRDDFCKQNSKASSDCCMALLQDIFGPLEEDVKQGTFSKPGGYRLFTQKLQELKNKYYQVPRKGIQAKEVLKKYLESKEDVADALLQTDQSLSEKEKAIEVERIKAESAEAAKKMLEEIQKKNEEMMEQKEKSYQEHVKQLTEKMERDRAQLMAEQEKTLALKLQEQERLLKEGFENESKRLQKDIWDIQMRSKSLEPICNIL
The assay can be described thus: affinity purification with mass spectrometry; GST or GST-GBP2 bound to resin, incubated with cell lysate; silver-stained bands specific to GST-GBP2 excised, nanoLC-MS/MS; two independent experiments; only the target purified.

On to “dynamin-related protein 1 (Drp1), endogenous (from UniProt O00429 1-736)”, for which the binding result is given as “binds”.
